Measurements from article PMC6113304.
Changes are numbered by the printed parent chain. Numbers in names are those of the source. Results are given in words; binding and its absence hold for the method and conditions named. In cells and extracts the contact can be indirect. Some results given as binding are weak or reduced against the parent protein; the word gives no strength. For some assays here: Where a sequence is shown, tags or fusion partners need not be part of it.

By UniProt entry, the sequences of proteins in these tests, tags left out. Where a name states a change or a piece, a line headed by the entry shows the natural chain unless it says otherwise.
UniProt O60674: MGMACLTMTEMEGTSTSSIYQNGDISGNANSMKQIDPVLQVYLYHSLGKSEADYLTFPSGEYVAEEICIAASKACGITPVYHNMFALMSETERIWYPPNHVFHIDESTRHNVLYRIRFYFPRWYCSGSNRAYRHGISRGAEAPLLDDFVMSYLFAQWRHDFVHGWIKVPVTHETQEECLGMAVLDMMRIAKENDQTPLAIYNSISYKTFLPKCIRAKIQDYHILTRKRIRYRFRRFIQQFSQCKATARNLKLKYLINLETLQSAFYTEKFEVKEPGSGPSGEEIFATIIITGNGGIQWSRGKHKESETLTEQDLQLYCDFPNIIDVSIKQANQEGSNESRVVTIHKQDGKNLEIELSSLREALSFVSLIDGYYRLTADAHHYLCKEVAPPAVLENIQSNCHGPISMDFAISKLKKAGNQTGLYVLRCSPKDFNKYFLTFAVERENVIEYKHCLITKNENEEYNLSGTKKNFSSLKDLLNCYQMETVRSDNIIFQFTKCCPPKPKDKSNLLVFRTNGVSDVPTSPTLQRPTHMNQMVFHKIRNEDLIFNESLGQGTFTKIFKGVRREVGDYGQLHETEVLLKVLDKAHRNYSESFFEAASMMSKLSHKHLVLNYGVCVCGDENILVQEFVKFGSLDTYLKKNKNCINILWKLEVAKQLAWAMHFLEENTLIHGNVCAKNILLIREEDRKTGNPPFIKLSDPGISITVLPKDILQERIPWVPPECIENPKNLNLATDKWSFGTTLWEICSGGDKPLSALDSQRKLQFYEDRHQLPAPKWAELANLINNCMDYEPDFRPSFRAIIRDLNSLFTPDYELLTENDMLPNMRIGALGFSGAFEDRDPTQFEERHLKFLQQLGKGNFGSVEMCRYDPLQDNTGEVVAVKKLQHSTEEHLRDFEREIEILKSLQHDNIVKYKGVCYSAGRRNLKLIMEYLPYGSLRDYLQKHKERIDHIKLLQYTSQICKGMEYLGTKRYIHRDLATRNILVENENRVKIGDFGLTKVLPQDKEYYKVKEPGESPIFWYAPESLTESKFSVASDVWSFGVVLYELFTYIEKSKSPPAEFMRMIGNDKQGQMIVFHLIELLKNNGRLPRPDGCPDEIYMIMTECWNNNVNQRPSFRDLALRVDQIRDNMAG
UniProt P40763: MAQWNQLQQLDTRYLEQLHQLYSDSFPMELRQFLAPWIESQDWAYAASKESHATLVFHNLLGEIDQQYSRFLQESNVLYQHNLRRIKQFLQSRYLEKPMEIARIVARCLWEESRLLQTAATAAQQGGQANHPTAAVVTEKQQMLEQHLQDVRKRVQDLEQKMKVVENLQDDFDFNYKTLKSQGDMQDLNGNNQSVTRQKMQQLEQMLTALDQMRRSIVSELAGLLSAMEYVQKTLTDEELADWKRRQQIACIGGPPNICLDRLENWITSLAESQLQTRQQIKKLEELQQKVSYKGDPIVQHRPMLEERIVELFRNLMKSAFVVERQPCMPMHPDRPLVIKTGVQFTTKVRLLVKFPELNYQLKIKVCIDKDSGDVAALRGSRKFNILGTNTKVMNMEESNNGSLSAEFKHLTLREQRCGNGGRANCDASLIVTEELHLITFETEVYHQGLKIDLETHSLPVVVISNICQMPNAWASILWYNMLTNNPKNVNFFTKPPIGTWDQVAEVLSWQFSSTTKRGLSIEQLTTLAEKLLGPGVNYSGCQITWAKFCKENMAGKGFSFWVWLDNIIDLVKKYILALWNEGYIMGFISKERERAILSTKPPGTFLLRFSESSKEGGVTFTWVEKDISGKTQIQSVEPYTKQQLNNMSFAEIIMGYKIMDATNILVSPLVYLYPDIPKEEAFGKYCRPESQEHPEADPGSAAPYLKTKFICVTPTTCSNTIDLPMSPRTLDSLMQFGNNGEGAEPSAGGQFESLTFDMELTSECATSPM
UniProt P42224: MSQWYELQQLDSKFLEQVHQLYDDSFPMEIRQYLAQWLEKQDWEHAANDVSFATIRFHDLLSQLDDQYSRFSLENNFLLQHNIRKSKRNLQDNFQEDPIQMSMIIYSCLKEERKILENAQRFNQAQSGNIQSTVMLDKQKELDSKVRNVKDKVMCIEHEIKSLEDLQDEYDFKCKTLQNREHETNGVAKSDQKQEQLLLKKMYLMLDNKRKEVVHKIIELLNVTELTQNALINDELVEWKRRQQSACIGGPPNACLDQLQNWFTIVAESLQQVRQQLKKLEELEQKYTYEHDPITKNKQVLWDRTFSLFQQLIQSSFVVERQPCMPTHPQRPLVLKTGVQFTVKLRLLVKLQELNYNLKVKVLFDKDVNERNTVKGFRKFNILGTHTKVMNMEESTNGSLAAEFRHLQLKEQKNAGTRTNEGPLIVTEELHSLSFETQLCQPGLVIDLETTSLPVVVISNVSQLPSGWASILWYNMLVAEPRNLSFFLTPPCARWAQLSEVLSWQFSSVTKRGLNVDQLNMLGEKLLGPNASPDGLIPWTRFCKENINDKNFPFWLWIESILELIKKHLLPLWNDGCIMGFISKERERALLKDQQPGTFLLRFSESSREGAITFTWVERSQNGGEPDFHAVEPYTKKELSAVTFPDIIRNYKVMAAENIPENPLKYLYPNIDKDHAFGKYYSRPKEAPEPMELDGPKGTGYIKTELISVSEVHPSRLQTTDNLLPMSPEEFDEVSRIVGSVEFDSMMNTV

How the values were obtained:
[1] = biological target: HA-tagged full-length JAK2 (UniProt O60674); test: co-IP; 293T cells transfected with tagged proteins (Myc-Wwox, Flag-STAT3, HA-JAK2); whole-cell lysates in IP lysis buffer (Pierce); IP with anti-Myc, anti-Flag M2 or anti-HA antibody overnight at 4 °C, Protein G Sepharose, washed three times with PBS; in one panel cells treated with IL-6 for the indicated time spans
[2] = biological target: Flag-tagged full-length STAT3 (UniProt P40763); test: as above
[3] = biological target: HA-tagged full-length JAK2 (UniProt O60674); test: co-IP; co-IP / IP experiments of the supplementary figures with proteins expressed from plasmids; cells, tags and antibodies not shown
HA-STAT1 = HA-STAT1 (UniProt P42224); test: as above
[4] = biological target: Flag-tagged full-length STAT3 (UniProt P40763); test: as above
STAT3-Y705F = STAT3-Y705F (UniProt P40763); test: as above
[5] = biological target: endogenous STAT3 (human (endogenous in MCF-10A, MCF-7, T47D)) (UniProt P40763); test: co-IP; endogenous proteins; lysates of MCF-10A, MCF-7 and T47D cells; IP with anti-STAT3 or anti-JAK2 antibodies; in one panel MCF-7 cells transfected with Wwox siRNA and stimulated with IL-6
[6] = biological target: endogenous JAK2 (human (endogenous in MCF-10A, T47D, MCF-7)) (UniProt O60674); test: as above

B1: Myc-tagged full-length Wwox (WW domain-containing oxidoreductase) (protein, UniProt Q9NZC7 1-414)
chain: MAALRYAGLDDTDSEDELPPGWEERTTKDGWVYYANHTEEKTQWEHPKTGKRKRVAGDLPYGWEQETDENGQVFFVDHINKRTTYLDPRLAFTVDDNPTKPTTRQRYDGSTTAMEILQGRDFTGKVVVVTGANSGIGFETAKSFALHGAHVILACRNMARASEAVSRILEEWHKAKVEAMTLDLALLRSVQHFAEAFKAKNVPLHVLVCNAATFALPWSLTKDGLETTFQVNHLGHFYLVQLLQDVLCRSAPARVIVVSSESHRFTDINDSLGKLDFSRLSPTKNDYWAMLAYNRSKLCNILFSNELHRRLSPRGVTSNAVHPGNMMYSNIHRSWWVYTLLFTLARPFTKSMQQGAATTVYCAAVPELEGLGGMYFNNCCRCMPSPEAQSEETARTLWALSERLIQERLGSQSG
**Q.** What does the source list for B1?
**A.** binding [1]: binds; binding [2]: binds; binding [3]: binds; binding (HA-STAT1): binds; binding [4]: binds; binding (STAT3-Y705F): binds

B2: endogenous Wwox (protein, UniProt Q9NZC7 1-414)
chain: B1 chain
**Q.** How did the binding [5] turn out when B2 was run?
**A.** binds

**Q.** And the binding [6]?
**A.** binds

B3: Wwox S14A (protein, UniProt Q9NZC7 1-414)
chain: B1 chain with S14A
**Q.** How did the binding [3] turn out when B3 was run?
**A.** binds

B4: Wwox T49A (protein, UniProt Q9NZC7 1-414)
chain: B1 chain with T49A
**Q.** How did the binding [3] turn out when B4 was run?
**A.** binds

B5: Wwox-Y33R (protein, UniProt Q9NZC7 1-414)
chain: B1 chain with Y33R
**Q.** For B5, which binding [4] is on record?
**A.** binds
